Record: PubChem BioAssay AID1159578 (Peter MacCallum Cancer Centre, 2015)
Assay: 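Knock-downs that alter how fast lymphatic endothelial cells migrate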 (primary screen). System: human lymphatic endothelial cells. Knock-down reagent: siRNA pool against human genes, 40 nM. Duration: 48 h after transfection. Measurement: 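High-content imaging of dye-stained cells in a scratch assay measures filled wound area and nuclei per well; duplicate means given as ratio to mock and robust z-score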. Direction: migration robust z-score: higher = faster migration into the scratch; migration relative to mock: higher = more scratch area covered than mock; nuclei per well: higher = more cells in the well. Rule for the call: 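Migration changed when robust z exceeds 2 or falls below -2 and mean nuclei number is at least 3300; otherwise not called changed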. Calls: active = migration changed; inactive = no migration change, or too few cells.
In all, the deposit lists about 18,000 reagents; this is a part drawn at random. About 1,030 of all reagents (5.7%) count as active. 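Inactive calls also include pools with fewer than 3300 nuclei, whose migration was not assessed.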 The raw values are shown without normalisation. Unmarked entries are inactive.

no.	gene	migration robust z-score	migration class with cell-count check	migration relative to mock	nuclei per well, duplicate mean
1	ELL3	2.37 (active)	migration z above 2; enough cells	1.5	6720
2	LOC155060	-0.04	migration z between -2 and 2; enough cells	0.88	5731
3	EFEMP1	0.18	migration z between -2 and 2; enough cells	0.94	5344
4	TCHHL1	0.68	migration z between -2 and 2; enough cells	1.06	4821
5	SLC37A3	-0.26	migration z between -2 and 2; enough cells	0.76	3958
6	GABRR2	-0.13	migration z between -2 and 2; enough cells	0.78	6506
7	RAB33B	-0.29	migration z between -2 and 2; enough cells	0.75	5994
8	BIN2	0.94	migration z between -2 and 2; enough cells	1.12	3709
9	JMJD6	-0.57	migration z between -2 and 2; enough cells	0.7	5534
10	PPEF1	-0.73	migration z between -2 and 2; enough cells	0.66	4683
11	ZFP28	-1.25	migration z between -2 and 2; enough cells	0.56	5295
12	RALGPS1	0.96	migration z between -2 and 2; enough cells	1.14	6860
13	THUMPD3	1.34	migration z between -2 and 2; enough cells	1.23	5904
14	NSRP1	1.18	migration z between -2 and 2; enough cells	1.19	5452
15	RSU1	-0.28	migration z between -2 and 2; enough cells	0.82	4976
16	POGLUT2	-1.17	migration z between -2 and 2; enough cells	0.58	5129
17	SLAMF8	-0.48	migration z between -2 and 2; enough cells	0.76	4916
18	SLC22A7	-0.46	migration z between -2 and 2; enough cells	0.72	4833
19	SLC30A2	-1.53	migration z between -2 and 2; enough cells	0.51	4827
20	SPX	-2.04 (active)	migration z below -2; enough cells	0.36	6053
21	ZNF286A	0.97	migration z between -2 and 2; enough cells	1.14	6781
22	RNASET2	1.12	migration z between -2 and 2; enough cells	1.02	5517
23	PGLYRP1	-0.7	migration z between -2 and 2; enough cells	0.67	5780
24	CPSF1	-0.04	migration z between -2 and 2; enough cells	0.88	5760
25	ZNF439	0.24	migration z between -2 and 2; enough cells	0.94	5622
26	TTLL6	-0.46	migration z between -2 and 2; enough cells	0.76	5422
27	CA9	-0.18	migration z between -2 and 2; enough cells	0.84	6372
28	SMAD2	1.38	migration z between -2 and 2; enough cells	1.07	6316
29	B4GALT4	0.44	migration z between -2 and 2; enough cells	0.89	6753
30	BRSK2	0.24	migration z between -2 and 2; enough cells	0.85	5958
31	THOC6	0.5	migration z between -2 and 2; enough cells	1.02	6980
32	MARCHF11	1.06	migration z between -2 and 2; enough cells	1.01	6117
33	NLRP12	-0.34	migration z between -2 and 2; enough cells	0.74	6366
34	OR5J2	-1.76	migration z between -2 and 2; enough cells	0.43	4634
35	MRPL41	-0.97	migration z between -2 and 2; enough cells	0.64	5596
36	KCNIP1	2.29 (active)	migration z above 2; enough cells	1.25	5690
37	MAP4K4	0.44	migration z between -2 and 2; enough cells	0.89	5118
38	ZC3H18	0.1	migration z between -2 and 2; enough cells	0.92	5992
39	SOCS6	1.01	migration z between -2 and 2; enough cells	1	5417

Hits, among the entries above:
gene	migration robust z-score	migration class with cell-count check	migration relative to mock	nuclei per well, duplicate mean
ELL3	2.37 (active)	migration z above 2; enough cells	1.5	6720
SPX	-2.04 (active)	migration z below -2; enough cells	0.36	6053
KCNIP1	2.29 (active)	migration z above 2; enough cells	1.25	5690
